Drawing on publication PMC2361330, this text covers binding for one substance.

The chains behind the UniProt entries cited, without tags or fusion partners. Residues count along the entry.
UniProt P17948, residues 27-1338: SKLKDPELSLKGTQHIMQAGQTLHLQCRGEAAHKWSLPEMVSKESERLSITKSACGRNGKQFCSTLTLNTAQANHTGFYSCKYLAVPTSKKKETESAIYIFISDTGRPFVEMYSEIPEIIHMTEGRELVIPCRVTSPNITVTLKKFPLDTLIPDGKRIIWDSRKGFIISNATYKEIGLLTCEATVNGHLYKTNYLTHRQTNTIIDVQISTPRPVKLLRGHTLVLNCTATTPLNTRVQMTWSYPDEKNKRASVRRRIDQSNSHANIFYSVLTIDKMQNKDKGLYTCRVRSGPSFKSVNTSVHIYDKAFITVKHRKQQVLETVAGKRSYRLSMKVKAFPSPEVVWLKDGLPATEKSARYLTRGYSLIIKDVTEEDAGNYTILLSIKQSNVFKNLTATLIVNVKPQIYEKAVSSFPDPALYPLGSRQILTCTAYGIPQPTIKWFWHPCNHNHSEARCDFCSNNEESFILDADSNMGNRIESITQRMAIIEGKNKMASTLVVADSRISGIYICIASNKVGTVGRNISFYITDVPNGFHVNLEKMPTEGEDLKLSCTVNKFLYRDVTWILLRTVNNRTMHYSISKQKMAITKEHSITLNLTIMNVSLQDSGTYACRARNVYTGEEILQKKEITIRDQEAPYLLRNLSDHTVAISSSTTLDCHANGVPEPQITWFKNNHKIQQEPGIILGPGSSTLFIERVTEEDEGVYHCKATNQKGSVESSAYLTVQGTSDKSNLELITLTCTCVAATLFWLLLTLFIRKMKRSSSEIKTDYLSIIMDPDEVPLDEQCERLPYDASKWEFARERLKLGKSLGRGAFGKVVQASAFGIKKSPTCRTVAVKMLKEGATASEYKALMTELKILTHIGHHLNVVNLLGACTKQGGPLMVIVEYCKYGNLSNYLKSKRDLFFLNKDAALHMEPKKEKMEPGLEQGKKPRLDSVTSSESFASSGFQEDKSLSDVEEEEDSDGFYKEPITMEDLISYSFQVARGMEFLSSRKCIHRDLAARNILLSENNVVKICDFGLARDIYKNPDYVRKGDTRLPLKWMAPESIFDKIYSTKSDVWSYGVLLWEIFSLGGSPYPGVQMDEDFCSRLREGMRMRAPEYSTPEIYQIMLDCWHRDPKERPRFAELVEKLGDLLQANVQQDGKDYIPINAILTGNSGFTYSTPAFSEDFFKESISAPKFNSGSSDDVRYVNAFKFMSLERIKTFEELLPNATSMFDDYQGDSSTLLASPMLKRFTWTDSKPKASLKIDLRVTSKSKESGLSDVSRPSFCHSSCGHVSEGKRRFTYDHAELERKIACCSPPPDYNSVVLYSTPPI
UniProt P07947: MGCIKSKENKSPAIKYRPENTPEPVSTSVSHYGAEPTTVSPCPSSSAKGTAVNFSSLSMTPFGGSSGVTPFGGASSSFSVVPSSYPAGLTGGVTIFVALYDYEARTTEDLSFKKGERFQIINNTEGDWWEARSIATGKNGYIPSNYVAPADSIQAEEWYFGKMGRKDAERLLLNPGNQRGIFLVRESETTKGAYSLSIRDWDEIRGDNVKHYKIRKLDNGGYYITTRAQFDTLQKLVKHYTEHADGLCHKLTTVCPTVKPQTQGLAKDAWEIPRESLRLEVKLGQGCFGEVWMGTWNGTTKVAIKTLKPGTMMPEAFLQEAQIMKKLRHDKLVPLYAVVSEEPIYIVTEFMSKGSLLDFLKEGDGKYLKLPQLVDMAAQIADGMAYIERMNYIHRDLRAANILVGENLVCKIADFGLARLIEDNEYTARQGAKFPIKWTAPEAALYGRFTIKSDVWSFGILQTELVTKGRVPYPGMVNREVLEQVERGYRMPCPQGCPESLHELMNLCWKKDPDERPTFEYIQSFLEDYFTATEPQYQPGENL

Results are given in words; binding and its absence hold for the method and conditions named. Binding seen in cells or lysates may run through a third protein. Some entries that bind do so weakly or less than the wild type.

Test [1] has as its target Vascular endothelial growth factor receptor 1 (human (endogenous in HT29)) (UniProt P17948). Nature of the test: co-IP; lysates of VEGF-A-treated HT29 cells (RIPA-B buffer) immunoprecipitated with anti-VEGFR-1 antibody; Western blot with antibodies to Src, Yes or VEGFR-1. (A western blot detects proteins with antibodies after separation by electrophoresis.)
Test [2] has the same target. Description: condition: only cells pretreated with the VEGFR-1 blocking antibody IMC-18F1 (20 μg ml^−1); co-IP; as a1, but HT29 cells pretreated with the VEGFR-1 blocking antibody IMC-18F1 (20 μg ml^−1, 1 h) before VEGF-A; immunoprecipitated with anti-VEGFR-1, blotted for Src, Yes or VEGFR-1.

Take “Yes (from UniProt P07947 1-543) (enzyme)”: the binding entry in test [1] is “binds”; in test [2], “no binding”.
